Results from the supplement of paper PMC6411743.
± gives the standard deviation of the averaged measurements. Some of the results follow.

Compound: Nc1nc2c(ncn2[C@@H]2O[C@H](COP(=O)(O)OP(=O)(O)OP(=O)(O)O)[C@@H](O)[C@H]2O)c(=O)[nH]1 [guanosine triphosphate]
Experiment: NP40-soluble protein abundance relative to vehicle (solubility fold change) (ratio); higher = more soluble protein in presence of GTP
Outline: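 Values are fold changes against the detergent-processed vehicle, based on vsn-normalised intensities. Jurkat crude lysate was treated at eight concentrations from 0.1 to 10 mM (10 min at room temperature, then 3 min at 37 °C), solubilised with 0.8% NP40 and benzonase, ultracentrifuged and analysed by TMT-labelled LC-MS/MS over three independent experiments.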

Target	NP40-soluble protein abundance (concentration: 0.1mM)	NP40-soluble protein abundance (concentration: 0.5mM)	NP40-soluble protein abundance (concentration: 1mM)	NP40-soluble protein abundance (concentration: 2mM)	NP40-soluble protein abundance (concentration: 4mM)	NP40-soluble protein abundance (concentration: 6mM)	NP40-soluble protein abundance (concentration: 8mM)	NP40-soluble protein abundance (concentration: 10mM)
A0A0A0MRC4|A0A0A0MSK4|Q86YR5 and related entries (UniProt Q86YR5)	0.937 ± 0.015	1.02 ± 0.088	0.942 ± 0.018	0.947 ± 0.041	0.876 ± 0.045	0.919 ± 0.064	0.9032 ± 0.0076	0.95 ± 0.074
A0A0U1RR32|A0A0U1RRH7|P04908 and related entries (UniProt Q99878+Q7L7L0+Q6FI13+Q93077+P20671+P0C0S8+Q96KK5+P04908)	1.01 ± 0.11	0.7204 ± 0.0051	1.26 ± 0.37	1.24 ± 0.024	1.76 ± 0.48	1.92 ± 0.49	1.4 ± 0.53	2.39 ± 1.2
A0A087X1A8|D3VVH9 and related entries (UniProt P54252)	0.899 ± 0.03	0.869 ± 0.091	0.948 ± 0.069	0.898 ± 0.13	0.859 ± 0.076	0.885 ± 0.12	0.862 ± 0.087	0.896 ± 0.077
A0A087X239|Q6PCB5 (UniProt Q6PCB5)	1.05 ± 0.03	1.13 ± 0.053	1.19 ± 0.058	1.24 ± 0.076	1.25 ± 0.047	1.24 ± 0.082	1.32 ± 0.15	1.29 ± 0.1
A0A0D9SG79|Q9NZ09 and related entries (UniProt Q9NZ09)	0.906 ± 0.026	0.953 ± 0.059	0.975 ± 0.08	0.958 ± 0.18	0.902 ± 0.05	0.923 ± 0.1	0.882 ± 0.061	1.03 ± 0.053
A0A087X0W8|Q04206 and related entries (UniProt Q04206)	1 ± 0.022	0.9839 ± 0.0077	0.952 ± 0.031	0.901 ± 0.029	0.905 ± 0.036	0.898 ± 0.04	0.919 ± 0.0098	0.89 ± 0.027
A0A087WYW3|P30414 (UniProt P30414)	1.15 ± 0.012	1.26 ± 0.047	1.41 ± 0.11	1.44 ± 0.16	1.42 ± 0.17	1.43 ± 0.19	1.53 ± 0.24	1.42 ± 0.3
A0A0A0MQU4|Q96I15 (UniProt Q96I15)	1.03 ± 0.12	1.04 ± 0.1	0.984 ± 0.084	0.971 ± 0.091	0.99 ± 0.1	0.944 ± 0.076	0.932 ± 0.079	0.921 ± 0.074
A0A087WYY4|F5H7B9 and related entries (UniProt O75386)	0.965 ± 0.054	0.993 ± 0.05	0.983 ± 0.015	0.9168 ± 0.0075	1 ± 0.024	0.995 ± 0.054	0.972 ± 0.035	1.04 ± 0.11
A0A087X1I8|Q7Z3E5 and related entries (UniProt Q7Z3E5)	1.01 ± 0.049	1.05 ± 0.042	0.999 ± 0.028	0.977 ± 0.051	0.963 ± 0.051	0.934 ± 0.052	0.95 ± 0.052	0.974 ± 0.039
A0A0A0MQS0|A8MW92 and related entries (UniProt A8MW92)	0.989 ± 0.079	1.03 ± 0.028	1.15 ± 0.082	1.24 ± 0.015	1.37 ± 0.021	1.51 ± 0.036	1.49 ± 0.15	1.58 ± 0.13
A0A087WY55|Q9NP79 (UniProt Q9NP79)	0.88 ± 0.098	0.798 ± 0.056	1.07 ± 0.15	1.03 ± 0.04	1.02 ± 0.077	0.972 ± 0.025	0.939 ± 0.091	1.06 ± 0.2
A0A087WXN9|Q765P7 (UniProt Q765P7)	1.14 ± 0.17	1.07 ± 0.17	1.09 ± 0.2	1.04 ± 0.16	1.09 ± 0.052	0.989 ± 0.22	1.03 ± 0.11	1.1 ± 0.036
A0A0C4DGZ1|Q8N5P1 (UniProt Q8N5P1)	0.912 ± 0.077	0.873 ± 0.047	1.02 ± 0.054	1.04 ± 0.03	1.1 ± 0.054	1.11 ± 0.049	1.2 ± 0.048	1.25 ± 0.13
A2A2V1 and related entries (UniProt P04156+A2A2V1)	1.033 ± 0.0069	0.812 ± 0.037	0.952 ± 0.021	1.146 ± 0.0053	0.9432 ± 0.0034	0.944 ± 0.021	0.871 ± 0.015	1.01 ± 0.076
A0A0D9SGE8|Q8IWS0 and related entries (UniProt Q8IWS0)	0.974 ± 0.048	0.981 ± 0.033	0.983 ± 0.056	0.992 ± 0.056	1 ± 0.067	1.03 ± 0.049	1.03 ± 0.07	1.03 ± 0.069
UniProt A2VDJ0-3|A2VDJ0-5|A2VDJ0-6|H0Y2M0	1.1 ± 0.11	1.06 ± 0.029	1.1 ± 0.073	1.11 ± 0.13	1.16 ± 0.15	1.15 ± 0.1	1.2 ± 0.09	1.1 ± 0.12
A0A087WYB4|Q9UJZ1 (UniProt Q9UJZ1)	0.917 ± 0.061	0.972 ± 0.053	1.01 ± 0.026	1.02 ± 0.048	0.999 ± 0.091	1.04 ± 0.07	1.05 ± 0.1	1.05 ± 0.13
A0A140T9R1|O75955 (UniProt O75955)	1.04 ± 0.045	1.09 ± 0.021	1.07 ± 0.045	1.15 ± 0.13	1.26 ± 0.27	1.19 ± 0.29	1.27 ± 0.28	1.2 ± 0.26
A0A0G2JS82|O94973 (UniProt O94973)	1.07 ± 0.024	1.077 ± 0.008	1.07 ± 0.022	1.08 ± 0.024	1.06 ± 0.013	1.05 ± 0.011	1.044 ± 0.0099	1.055 ± 0.0092
A0A0C4DFM1|Q92544 (UniProt Q92544)	1.04 ± 0.088	1.07 ± 0.13	0.929 ± 0.092	0.958 ± 0.12	0.943 ± 0.099	0.905 ± 0.085	0.894 ± 0.076	0.878 ± 0.14
A0A0C4DG44|O43464 and related entries (UniProt O43464)	1.02 ± 0.014	1.02 ± 0.028	1.04 ± 0.019	1.03 ± 0.017	1.02 ± 0.091	1 ± 0.058	0.991 ± 0.014	0.992 ± 0.024
A0A087X176|Q6ZRP7 (UniProt Q6ZRP7)	0.955 ± 0.015	0.918 ± 0.032	0.947 ± 0.041	0.94 ± 0.035	0.982 ± 0.034	0.955 ± 0.03	0.923 ± 0.067	0.945 ± 0.028
A0A0A0MQT4|Q5QP82 and related entries (UniProt Q5QP82)	1.08 ± 0.081	0.9643 ± 0.0031	0.934 ± 0.015	0.984 ± 0.026	0.928 ± 0.036	0.97 ± 0.038	1.06 ± 0.018	1.01 ± 0.0013

Some values from the list:
In NP40-soluble protein abundance (concentration: 0.1mM), A0A087WY55|Q9NP79 (UniProt Q9NP79) is listed with 0.88 ± 0.098
In NP40-soluble protein abundance (concentration: 0.1mM), A0A087WXN9|Q765P7 (UniProt Q765P7) is listed with 1.14 ± 0.17
